In series [1] the target is NKX3.1 homeodomain (NKX3.1HD) (Homo sapiens) (UniProt Q99801). As to the kind of experiment: EMSA. The conditions noted are these: human protein stated to behave identically to murine, purified recombinant protein, protein details: N-terminal 6xHis (pQE-9, E. coli), label: 32P. In general terms: In EMSA bound probe runs differently from free probe, usually more slowly.
The target in series [2] is NKX3.1 homeodomain (NKX3.1HD) (Mus musculus) (UniProt P97436). In words: EMSA. The conditions noted are these: purified recombinant protein, protein details: N-terminal 6xHis (pQE-9, E. coli), label: 32P.

Weaker means in comparison with the reference protein, sequence or condition of that experiment. For some assays here: The exact form of at least one protein or probe is not confirmed.

Consider “ACACTAATTGGAGGC (double strand) [site 6 (Msx1 consensus, TAAT core)]”, for which the binding result is “binds more weakly” in series [1] and “binds more weakly” in series [2] (TAAT core, lower apparent affinity than CAAG site).
In the case of “CACTGCCCAGTCAAGTGTTCTTGA (double strand) [C site (NKX2.1 consensus, CAAG core)]”, the binding result in series [2] (preferential binding (CAAG core), 50 mM NaCl, 7.5 mM MgCl2, room temperature, poly-dIdC) is on record as “binds”.
For the sequence “CTCTAATGGCTTTTTTCTC (double strand) [site BS2 (substituted 3' of TAAT core)]”, the binding result in series [1] (TAAT-core site not itemised) is on record as “binds more weakly”; in series [2] (contains TAAT core, text reports TAAT-core sites bound with lower affinity, not itemised) it was “binds more weakly”.

These data come from US20030022275.
